This is an account of results in the supplement of paper PMC11006884.

Chains of the proteins cited; added tags and fusions are not shown. Lines headed by an entry give the natural chain unless they say otherwise; changes in a name come on top.
UniProt P48643, whole entry, looked up: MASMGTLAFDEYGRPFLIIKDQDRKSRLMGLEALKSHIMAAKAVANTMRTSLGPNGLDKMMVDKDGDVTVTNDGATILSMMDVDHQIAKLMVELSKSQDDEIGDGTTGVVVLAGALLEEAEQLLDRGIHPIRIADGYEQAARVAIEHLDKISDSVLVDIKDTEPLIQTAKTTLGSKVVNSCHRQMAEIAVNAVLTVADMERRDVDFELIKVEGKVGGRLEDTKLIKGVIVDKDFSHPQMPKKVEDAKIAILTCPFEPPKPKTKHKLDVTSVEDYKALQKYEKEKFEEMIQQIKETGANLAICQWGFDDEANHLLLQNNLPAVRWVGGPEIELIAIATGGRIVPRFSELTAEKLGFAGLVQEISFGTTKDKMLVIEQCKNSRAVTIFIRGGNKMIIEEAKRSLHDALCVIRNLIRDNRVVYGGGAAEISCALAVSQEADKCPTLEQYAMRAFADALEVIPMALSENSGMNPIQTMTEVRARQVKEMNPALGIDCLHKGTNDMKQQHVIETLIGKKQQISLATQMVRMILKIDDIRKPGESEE
UniProt P49327, whole entry, looked up: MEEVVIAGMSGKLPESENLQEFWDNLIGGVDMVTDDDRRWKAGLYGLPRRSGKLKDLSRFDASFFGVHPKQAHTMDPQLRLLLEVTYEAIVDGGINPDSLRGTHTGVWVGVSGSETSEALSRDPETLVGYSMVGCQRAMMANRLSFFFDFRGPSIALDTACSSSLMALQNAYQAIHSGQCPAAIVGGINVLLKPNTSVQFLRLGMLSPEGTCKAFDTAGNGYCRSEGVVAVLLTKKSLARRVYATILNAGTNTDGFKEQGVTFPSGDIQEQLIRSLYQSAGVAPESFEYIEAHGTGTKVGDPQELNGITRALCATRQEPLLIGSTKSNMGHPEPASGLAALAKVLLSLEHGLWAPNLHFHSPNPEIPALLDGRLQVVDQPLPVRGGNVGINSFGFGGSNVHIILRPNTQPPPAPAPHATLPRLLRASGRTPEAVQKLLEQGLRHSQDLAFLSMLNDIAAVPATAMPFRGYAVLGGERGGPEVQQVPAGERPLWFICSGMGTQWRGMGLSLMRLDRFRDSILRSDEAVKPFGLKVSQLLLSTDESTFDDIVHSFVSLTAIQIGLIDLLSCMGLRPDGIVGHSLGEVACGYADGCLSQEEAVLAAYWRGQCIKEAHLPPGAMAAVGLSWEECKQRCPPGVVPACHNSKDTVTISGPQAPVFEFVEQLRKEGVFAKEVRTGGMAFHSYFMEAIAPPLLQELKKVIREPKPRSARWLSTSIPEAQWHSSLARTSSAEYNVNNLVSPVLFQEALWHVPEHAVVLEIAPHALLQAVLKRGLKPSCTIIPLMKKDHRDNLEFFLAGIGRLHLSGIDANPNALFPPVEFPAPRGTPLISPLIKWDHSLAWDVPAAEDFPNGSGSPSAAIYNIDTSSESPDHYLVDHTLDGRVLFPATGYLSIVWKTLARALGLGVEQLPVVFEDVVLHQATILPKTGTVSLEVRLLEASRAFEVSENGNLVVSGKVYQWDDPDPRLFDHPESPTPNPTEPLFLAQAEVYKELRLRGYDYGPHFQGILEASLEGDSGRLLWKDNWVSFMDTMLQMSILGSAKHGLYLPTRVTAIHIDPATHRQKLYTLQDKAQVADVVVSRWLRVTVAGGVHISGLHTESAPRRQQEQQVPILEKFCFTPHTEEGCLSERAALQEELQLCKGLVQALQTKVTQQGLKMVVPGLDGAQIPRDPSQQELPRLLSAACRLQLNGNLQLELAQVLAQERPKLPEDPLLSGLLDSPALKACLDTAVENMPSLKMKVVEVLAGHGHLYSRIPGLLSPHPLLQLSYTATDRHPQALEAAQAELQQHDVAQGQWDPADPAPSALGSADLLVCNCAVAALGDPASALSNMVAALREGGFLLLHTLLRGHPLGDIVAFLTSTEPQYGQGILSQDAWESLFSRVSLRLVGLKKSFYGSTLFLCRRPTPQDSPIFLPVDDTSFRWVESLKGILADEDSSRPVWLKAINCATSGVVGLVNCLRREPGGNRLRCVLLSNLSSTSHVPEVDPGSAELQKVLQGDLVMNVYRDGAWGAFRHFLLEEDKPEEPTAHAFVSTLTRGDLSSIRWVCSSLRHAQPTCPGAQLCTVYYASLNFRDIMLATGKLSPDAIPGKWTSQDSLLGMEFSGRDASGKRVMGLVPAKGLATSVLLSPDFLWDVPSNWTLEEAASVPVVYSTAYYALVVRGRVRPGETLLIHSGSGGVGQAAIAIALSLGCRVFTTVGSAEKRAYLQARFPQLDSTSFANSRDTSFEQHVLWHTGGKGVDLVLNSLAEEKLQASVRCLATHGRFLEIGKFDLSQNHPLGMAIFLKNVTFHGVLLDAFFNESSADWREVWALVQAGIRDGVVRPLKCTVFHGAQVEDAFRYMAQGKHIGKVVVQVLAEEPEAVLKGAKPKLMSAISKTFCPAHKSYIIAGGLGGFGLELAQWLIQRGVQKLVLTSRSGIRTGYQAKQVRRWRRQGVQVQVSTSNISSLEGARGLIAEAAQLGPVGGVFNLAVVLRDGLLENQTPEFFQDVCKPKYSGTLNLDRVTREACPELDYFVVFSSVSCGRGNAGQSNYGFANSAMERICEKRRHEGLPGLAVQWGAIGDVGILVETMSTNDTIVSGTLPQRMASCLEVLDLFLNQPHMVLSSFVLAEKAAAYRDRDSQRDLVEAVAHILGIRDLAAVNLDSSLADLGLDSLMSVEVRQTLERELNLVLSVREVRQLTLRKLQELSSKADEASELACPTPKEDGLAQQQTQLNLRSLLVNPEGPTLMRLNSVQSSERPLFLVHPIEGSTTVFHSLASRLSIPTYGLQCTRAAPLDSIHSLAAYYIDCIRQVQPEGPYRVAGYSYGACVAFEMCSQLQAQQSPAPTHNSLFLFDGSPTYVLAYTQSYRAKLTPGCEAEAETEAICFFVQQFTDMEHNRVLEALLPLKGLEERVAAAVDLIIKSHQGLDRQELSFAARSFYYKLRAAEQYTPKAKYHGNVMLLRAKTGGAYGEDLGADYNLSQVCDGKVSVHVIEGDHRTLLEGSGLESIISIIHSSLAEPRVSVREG
UniProt P49321, whole entry, looked up: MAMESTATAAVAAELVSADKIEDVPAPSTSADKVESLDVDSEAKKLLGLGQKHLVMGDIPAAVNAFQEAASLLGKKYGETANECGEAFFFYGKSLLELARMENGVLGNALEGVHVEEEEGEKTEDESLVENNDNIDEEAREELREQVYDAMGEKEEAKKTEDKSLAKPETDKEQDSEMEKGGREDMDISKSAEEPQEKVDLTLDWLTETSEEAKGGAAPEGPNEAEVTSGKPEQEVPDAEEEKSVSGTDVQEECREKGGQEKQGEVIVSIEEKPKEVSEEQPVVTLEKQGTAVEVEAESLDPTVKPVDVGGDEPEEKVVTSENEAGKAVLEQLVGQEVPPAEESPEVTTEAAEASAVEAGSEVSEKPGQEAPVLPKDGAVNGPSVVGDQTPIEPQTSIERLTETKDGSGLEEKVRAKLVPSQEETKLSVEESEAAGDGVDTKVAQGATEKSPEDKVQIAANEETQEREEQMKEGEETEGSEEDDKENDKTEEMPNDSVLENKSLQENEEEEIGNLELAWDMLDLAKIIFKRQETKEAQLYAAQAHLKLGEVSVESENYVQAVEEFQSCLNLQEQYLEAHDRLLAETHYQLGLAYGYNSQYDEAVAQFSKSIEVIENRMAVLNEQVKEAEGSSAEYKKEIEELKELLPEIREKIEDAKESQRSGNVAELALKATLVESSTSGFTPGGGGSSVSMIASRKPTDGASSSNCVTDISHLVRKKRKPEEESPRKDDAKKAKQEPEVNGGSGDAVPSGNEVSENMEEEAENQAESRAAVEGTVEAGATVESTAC
UniProt P50552: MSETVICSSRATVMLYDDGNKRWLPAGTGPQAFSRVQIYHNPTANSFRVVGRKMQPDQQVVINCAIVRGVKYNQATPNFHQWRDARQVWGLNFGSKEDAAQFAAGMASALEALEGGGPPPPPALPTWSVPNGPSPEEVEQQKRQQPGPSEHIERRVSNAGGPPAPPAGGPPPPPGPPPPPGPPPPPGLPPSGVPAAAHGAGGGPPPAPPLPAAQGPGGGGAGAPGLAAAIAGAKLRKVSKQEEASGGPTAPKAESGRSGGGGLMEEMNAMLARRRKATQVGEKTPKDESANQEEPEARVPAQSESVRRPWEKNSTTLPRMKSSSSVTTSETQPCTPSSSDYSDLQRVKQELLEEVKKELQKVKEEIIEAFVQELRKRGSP
UniProt P46379: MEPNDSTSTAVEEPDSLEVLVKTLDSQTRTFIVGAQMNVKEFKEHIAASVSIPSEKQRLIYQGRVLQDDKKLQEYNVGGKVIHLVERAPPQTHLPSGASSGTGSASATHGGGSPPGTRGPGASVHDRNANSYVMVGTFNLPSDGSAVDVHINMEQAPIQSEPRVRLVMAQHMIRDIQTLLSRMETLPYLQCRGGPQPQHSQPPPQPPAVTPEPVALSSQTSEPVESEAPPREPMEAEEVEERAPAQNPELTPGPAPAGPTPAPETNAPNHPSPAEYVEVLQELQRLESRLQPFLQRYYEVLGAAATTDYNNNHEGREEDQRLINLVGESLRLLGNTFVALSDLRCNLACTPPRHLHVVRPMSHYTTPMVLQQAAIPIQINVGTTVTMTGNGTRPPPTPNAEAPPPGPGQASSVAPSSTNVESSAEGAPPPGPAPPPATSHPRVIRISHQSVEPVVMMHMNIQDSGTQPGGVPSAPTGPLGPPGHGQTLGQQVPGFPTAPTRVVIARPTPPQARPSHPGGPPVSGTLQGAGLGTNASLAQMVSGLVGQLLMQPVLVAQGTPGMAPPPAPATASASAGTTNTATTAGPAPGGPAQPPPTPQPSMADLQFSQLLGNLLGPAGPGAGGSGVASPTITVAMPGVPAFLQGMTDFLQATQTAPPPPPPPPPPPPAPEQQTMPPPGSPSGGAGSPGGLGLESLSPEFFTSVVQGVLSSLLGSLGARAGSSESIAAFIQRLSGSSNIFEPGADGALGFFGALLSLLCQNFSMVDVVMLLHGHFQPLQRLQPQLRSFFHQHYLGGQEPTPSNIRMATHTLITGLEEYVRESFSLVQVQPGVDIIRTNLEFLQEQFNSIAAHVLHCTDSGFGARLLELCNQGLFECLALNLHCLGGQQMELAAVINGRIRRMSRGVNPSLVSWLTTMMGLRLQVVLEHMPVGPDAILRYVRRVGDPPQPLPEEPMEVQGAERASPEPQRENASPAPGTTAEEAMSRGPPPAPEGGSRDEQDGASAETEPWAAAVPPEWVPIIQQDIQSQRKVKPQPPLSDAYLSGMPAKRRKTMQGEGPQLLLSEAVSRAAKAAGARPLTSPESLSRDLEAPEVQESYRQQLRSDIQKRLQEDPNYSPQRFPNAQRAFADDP
UniProt P51570: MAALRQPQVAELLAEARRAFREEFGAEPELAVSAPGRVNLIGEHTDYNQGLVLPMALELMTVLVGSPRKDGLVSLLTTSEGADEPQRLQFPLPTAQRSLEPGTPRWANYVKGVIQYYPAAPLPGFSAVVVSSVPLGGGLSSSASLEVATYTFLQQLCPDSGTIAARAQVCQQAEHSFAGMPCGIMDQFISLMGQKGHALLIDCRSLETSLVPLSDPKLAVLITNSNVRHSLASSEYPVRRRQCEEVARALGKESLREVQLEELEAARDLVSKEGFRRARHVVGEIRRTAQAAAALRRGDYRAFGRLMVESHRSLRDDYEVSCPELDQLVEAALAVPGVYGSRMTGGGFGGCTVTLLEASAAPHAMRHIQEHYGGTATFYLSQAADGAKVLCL
UniProt P49441: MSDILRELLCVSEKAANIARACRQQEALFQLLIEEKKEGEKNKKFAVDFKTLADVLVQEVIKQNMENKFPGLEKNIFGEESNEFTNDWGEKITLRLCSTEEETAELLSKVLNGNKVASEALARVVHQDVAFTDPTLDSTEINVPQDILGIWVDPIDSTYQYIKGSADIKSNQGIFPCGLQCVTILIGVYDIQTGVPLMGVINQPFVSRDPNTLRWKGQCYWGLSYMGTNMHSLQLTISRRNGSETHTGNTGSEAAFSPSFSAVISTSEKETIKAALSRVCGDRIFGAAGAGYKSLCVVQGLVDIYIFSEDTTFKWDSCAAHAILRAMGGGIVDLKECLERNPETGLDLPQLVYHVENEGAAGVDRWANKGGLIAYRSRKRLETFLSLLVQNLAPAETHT

The targets with a hit were mostly taken out for another list; the other results follow. The data scatter; read single values as rough. The entries are a selection whose mix differs from that of the whole data set.

Compound in the assay: COC(=O)/C=C/c1ccccc1 [methyl cinnamate]
Briefly: log2 ratio of iodoacetamide-alkyne labeling of the cysteine site, DMSO over compound (competition); higher = stronger covalent engagement of the cysteine by the compound, active = 1 or more. As to conditions: 500 µM; treatment time 1 h; system: HEK293T cell lysate. An outline of the steps: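 HEK293T lysate (2 mg/mL) was incubated with electrophile (500 µM) or vehicle for 1 h at ambient temperature and then with iodoacetamide alkyne for 1 h. Labelled proteins were clicked to sCIP-TMT reagents, pooled, digested, enriched on streptavidin and measured by Orbitrap Eclipse LC-MS/MS with FAIMS, with FragPipe quantification. The per-cysteine log2 competition ratio is mean control-channel reporter intensity over mean compound-channel reporter intensity. Across three replicates with duplicate channels, cysteines quantified in only one replicate were excluded.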
For LRBA C1704 (UniProt P50851), the “log2 ratio of iodoacetamide-alkyne labeling” value (shortened to “log2 ratio”) is inactive: 0.0274.

As for CCT5 C429 (UniProt P48643), the “log2 ratio” value was inactive: 0.14. As to CCT3 C398 (UniProt P49368), the “log2 ratio” value is inactive: 0.125.

For FASN C2091 (UniProt P49327), the “log2 ratio” value was inactive: -0.308. Regarding FXR2 C87 (UniProt P51116), the “log2 ratio” value was inactive: 0.00581. As to CCT8 C244 (UniProt P50990), the “log2 ratio” value is inactive: 0.289. Turning to VDAC2 C8 (UniProt P45880), the “log2 ratio” value was inactive: 0.114. The value for MKI67 C1285 (UniProt P46013) was inactive: 0.257; that for NASP C708 (UniProt P49321) was inactive: 0.358. With HCFC1 C1895 (UniProt P51610), the “log2 ratio” value was inactive: 0.228.

CAMLG C123 (UniProt P49069): the “log2 ratio” value was inactive: 0.239. The figure for MKI67 C1479 (UniProt P46013) is inactive: 0.282; for VASP C64 (UniProt P50552) it is inactive: -0.0221; for UniProt P46379_C856 it is inactive: 0.00951. The value for GALK1 C351 (UniProt P51570) was inactive: -0.0851; that for LRBA C1228 (UniProt P50851) was inactive: 0.24; that for FASN C1471 (UniProt P49327) was inactive: 0.221. On to FASN C2202 (UniProt P49327), for which the “log2 ratio” value was inactive: 0.356. The value for CCT3 C40 (UniProt P49368) was inactive: -0.0239; that for FNTB C11 (UniProt P49356) was inactive: 0.0539. The value for INPP1 C10 (UniProt P49441) was inactive: -0.132; that for ME1 C556 (UniProt P48163) was inactive: 0.043.
